# The supplement of paper PMC8728848
# The list shows a part of the results.
# Assays:
# Assay in all cases: glycan array binding signal (z-score within array); higher = stronger binding
# Details in all cases: glycan notation: IUPAC condensed, linker removed
# Fuc(a1-2)Gal(b1-4)Glc = molecular target: Fuc(a1-2)Gal(b1-4)Glc
# In short: (§1)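 Glycan array data came from 3228 arrays in the Consortium for Functional Glycomics database, and only arrays with an available protein sequence were kept. Glycan names were put into IUPAC-condensed notation, and columns mapping to the same glycan were averaged. The binding signal is a within-array Z-score, averaged across arrays of one protein sequence run at different concentrations or buffers and across linkers. A negative Z-score can be read as non-binding.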
# Fuc(a1-2)Gal(b1-4)Glc6S = molecular target: Fuc(a1-2)Gal(b1-4)Glc6S
# In short: as §1
# Fuc(a1-2)Gal(b1-4)GlcNAc = molecular target: Fuc(a1-2)Gal(b1-4)GlcNAc
# In short: as §1
# [1] = molecular target: Fuc(a1-2)Gal(b1-4)GlcNAc(b1-2)Man
# In short: as §1
# [2] = molecular target: Fuc(a1-2)Gal(b1-4)GlcNAc(b1-2)Man(a1-3)[Fuc(a1-2)Gal(b1-4)GlcNAc(b1-2)Man(a1-6)]Man(b1-4)GlcNAc(b1-4)GlcNAc
# In short: as §1
# [3] = molecular target: Fuc(a1-2)Gal(b1-4)GlcNAc(b1-2)Man(a1-3)[Fuc(a1-2)Gal(b1-4)GlcNAc(b1-2)Man(a1-6)]Man(b1-4)GlcNAc(b1-4)[Fuc(a1-6)]GlcNAc
# In short: as §1
# [4] = molecular target: Fuc(a1-2)Gal(b1-4)GlcNAc(b1-2)[Fuc(a1-2)Gal(b1-4)GlcNAc(b1-4)]Man(a1-3)[Fuc(a1-2)Gal(b1-4)GlcNAc(b1-2)Man(a1-6)]Man(b1-4)GlcNAc(b1-4)GlcNAc
# In short: as §1
# [5] = molecular target: Fuc(a1-2)Gal(b1-4)GlcNAc(b1-3)Gal(b1-4)GlcNAc
# In short: as §1
# [6] = molecular target: Fuc(a1-2)Gal(b1-4)GlcNAc(b1-3)Gal(b1-4)GlcNAc(b1-2)Man(a1-3)[Fuc(a1-2)Gal(b1-4)GlcNAc(b1-3)Gal(b1-4)GlcNAc(b1-2)Man(a1-6)]Man(b1-4)GlcNAc(b1-4)GlcNAc
# In short: as §1
# [7] = molecular target: Fuc(a1-2)Gal(b1-4)GlcNAc(b1-3)Gal(b1-4)GlcNAc(b1-3)Gal(b1-4)GlcNAc
# In short: as §1
# [8] = molecular target: Fuc(a1-2)Gal(b1-4)GlcNAc(b1-3)GalNAc
# In short: as §1
# [9] = molecular target: Fuc(a1-2)Gal(b1-4)GlcNAc(b1-3)[Fuc(a1-2)Gal(b1-4)GlcNAc(b1-6)]GalNAc
# In short: as §1
# [10] = molecular target: Fuc(a1-2)Gal(b1-4)GlcNAc(b1-3)[Fuc(a1-3)[Gal(b1-4)]GlcNAc(b1-6)]Gal(b1-4)Glc
# In short: as §1
# [11] = molecular target: Fuc(a1-2)Gal(b1-4)GlcNAc(b1-6)GalNAc
# In short: as §1
# [12] = molecular target: Fuc(a1-2)Gal(b1-4)GlcNAc6S
# In short: as §1
# [13] = molecular target: Fuc(a1-2)Gal(b1-4)[Fuc(a1-3)]GlcNAc
# In short: as §1
# [14] = molecular target: Fuc(a1-2)Gal(b1-4)[Fuc(a1-3)]GlcNAc(b1-2)Man(a1-3)[Fuc(a1-2)Gal(b1-4)[Fuc(a1-3)]GlcNAc(b1-2)Man(a1-6)]Man(b1-4)GlcNAc(b1-4)[Fuc(a1-6)]GlcNAc
# In short: as §1
# [15] = molecular target: Fuc(a1-2)Gal(b1-4)[Fuc(a1-3)]GlcNAc(b1-2)[Fuc(a1-2)Gal(b1-4)[Fuc(a1-3)]GlcNAc(b1-4)]Man(a1-3)[Fuc(a1-2)Gal(b1-4)[Fuc(a1-3)]GlcNAc(b1-2)Man(a1-6)]Man(b1-4)GlcNAc(b1-4)GlcNAc
# In short: as §1
# [16] = molecular target: Fuc(a1-2)Gal(b1-4)[Fuc(a1-3)]GlcNAc(b1-3)Gal(b1-4)[Fuc(a1-3)]GlcNAc
# In short: as §1
# [17] = molecular target: Fuc(a1-2)Gal(b1-4)[Fuc(a1-3)]GlcNAc(b1-3)Gal(b1-4)[Fuc(a1-3)]GlcNAc(b1-3)Gal(b1-4)[Fuc(a1-3)]GlcNAc
# In short: as §1
# [18] = molecular target: Fuc(a1-2)Gal(b1-4)[Fuc(a1-3)]GlcNAc(b1-3)GalNAc
# In short: as §1
# [19] = molecular target: Fuc(a1-2)Gal(b1-4)[Fuc(a1-3)]GlcNAc(b1-3)[Neu5Ac(a2-6)Gal(b1-4)GlcNAc(b1-6)]Gal(b1-4)Glc
# In short: as §1
# [20] = molecular target: Fuc(a1-2)Gal3S(b1-4)GlcNAc
# In short: as §1
binder,measurement,setting,value
"EfCBM33A (Enterococcus faecalis), Q838S1 (protein) MKKSLLTIVLAFSFVLGGAALAPTVSEAHGYVASPGSRAFFGSSAGGNLNTNVGRAQWEPQSIEAPKNTFITGKLASAGVSGFEPLDEQTATRWHKTNITTGPLDITWNLTAQHRTASWDYYITKNGWNPNQPLDIKNFDKIASIDGKQEVPNKVVKQTINIPTDRKGYHVIYAVWGIGDTVNAFYQAIDVNIQ",glycan array binding signal (z-score),Fuc(a1-2)Gal(b1-4)Glc,0.342
same,glycan array binding signal (z-score),Fuc(a1-2)Gal(b1-4)Glc6S,-0.44
same,glycan array binding signal (z-score),Fuc(a1-2)Gal(b1-4)GlcNAc,-0.251
same,glycan array binding signal (z-score),[1],-0.389
same,glycan array binding signal (z-score),[2],-0.877
same,glycan array binding signal (z-score),[3],-0.241
same,glycan array binding signal (z-score),[4],1.06
same,glycan array binding signal (z-score),[5],0.573
same,glycan array binding signal (z-score),[6],1.36
same,glycan array binding signal (z-score),[7],-0.368
same,glycan array binding signal (z-score),[8],0.433
same,glycan array binding signal (z-score),[9],0.218
same,glycan array binding signal (z-score),[10],0.997
same,glycan array binding signal (z-score),[11],1.05
same,glycan array binding signal (z-score),[12],-1.63
same,glycan array binding signal (z-score),[13],0.633
same,glycan array binding signal (z-score),[14],0.665
same,glycan array binding signal (z-score),[15],-0.786
same,glycan array binding signal (z-score),[16],0.784
same,glycan array binding signal (z-score),[17],0.201
same,glycan array binding signal (z-score),[18],-0.936
same,glycan array binding signal (z-score),[19],0.413
same,glycan array binding signal (z-score),[20],0.017

# Some of the entries so far, with tabs.
binder	measurement	setting	value
EfCBM33A (Enterococcus faecalis), Q838S1 (protein) MKKSLLTIVLAFSFVLGGAALAPTVSEAHGYVASPGSRAFFGSSAGGNLNTNVGRAQWEPQSIEAPKNTFITGKLASAGVSGFEPLDEQTATRWHKTNITTGPLDITWNLTAQHRTASWDYYITKNGWNPNQPLDIKNFDKIASIDGKQEVPNKVVKQTINIPTDRKGYHVIYAVWGIGDTVNAFYQAIDVNIQ	glycan array binding signal (z-score)	[2]	-0.877
same	glycan array binding signal (z-score)	[3]	-0.241
